# The other results are listed elsewhere or left out.
# Amino acid sequences for entries named in this document (tags omitted). A change or cut given only in a name is not applied to a line headed by its entry.
# UniProt Q96JG6: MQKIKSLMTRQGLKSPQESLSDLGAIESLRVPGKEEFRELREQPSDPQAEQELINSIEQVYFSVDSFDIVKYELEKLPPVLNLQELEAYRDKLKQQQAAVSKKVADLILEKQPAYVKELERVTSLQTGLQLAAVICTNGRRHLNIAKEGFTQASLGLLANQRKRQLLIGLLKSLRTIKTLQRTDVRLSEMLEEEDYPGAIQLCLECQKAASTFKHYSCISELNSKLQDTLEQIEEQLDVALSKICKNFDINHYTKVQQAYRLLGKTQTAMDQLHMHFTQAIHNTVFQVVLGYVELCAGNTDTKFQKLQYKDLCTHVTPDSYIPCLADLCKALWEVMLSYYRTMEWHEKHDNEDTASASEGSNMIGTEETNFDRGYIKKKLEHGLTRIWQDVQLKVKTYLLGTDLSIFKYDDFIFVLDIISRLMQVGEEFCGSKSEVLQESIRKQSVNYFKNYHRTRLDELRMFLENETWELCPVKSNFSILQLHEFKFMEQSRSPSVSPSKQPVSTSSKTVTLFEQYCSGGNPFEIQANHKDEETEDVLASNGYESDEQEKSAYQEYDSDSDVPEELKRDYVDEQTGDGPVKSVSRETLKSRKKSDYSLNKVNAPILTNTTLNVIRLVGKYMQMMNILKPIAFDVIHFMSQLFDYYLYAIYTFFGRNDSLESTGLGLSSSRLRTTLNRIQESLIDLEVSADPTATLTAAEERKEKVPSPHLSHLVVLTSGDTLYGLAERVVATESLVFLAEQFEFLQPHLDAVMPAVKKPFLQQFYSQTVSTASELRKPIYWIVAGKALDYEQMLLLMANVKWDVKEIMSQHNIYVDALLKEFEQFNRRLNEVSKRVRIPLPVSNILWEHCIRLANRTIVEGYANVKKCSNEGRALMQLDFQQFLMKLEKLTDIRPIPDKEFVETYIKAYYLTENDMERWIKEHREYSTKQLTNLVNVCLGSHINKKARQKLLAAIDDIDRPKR
# UniProt Q8IV63: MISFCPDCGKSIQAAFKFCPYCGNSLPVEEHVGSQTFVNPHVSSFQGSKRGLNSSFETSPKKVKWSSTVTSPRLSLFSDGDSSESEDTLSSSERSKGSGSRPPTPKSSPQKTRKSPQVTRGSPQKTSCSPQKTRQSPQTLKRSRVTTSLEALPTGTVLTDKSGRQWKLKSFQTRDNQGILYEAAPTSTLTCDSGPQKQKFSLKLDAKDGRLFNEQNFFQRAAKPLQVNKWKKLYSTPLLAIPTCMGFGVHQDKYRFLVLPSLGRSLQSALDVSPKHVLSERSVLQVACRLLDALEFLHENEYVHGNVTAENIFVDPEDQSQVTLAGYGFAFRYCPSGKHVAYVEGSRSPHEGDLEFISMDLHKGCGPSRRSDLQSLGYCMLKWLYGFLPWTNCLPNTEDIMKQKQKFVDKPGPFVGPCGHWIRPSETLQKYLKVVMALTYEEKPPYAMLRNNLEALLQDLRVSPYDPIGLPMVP
# UniProt Q9H1Z4: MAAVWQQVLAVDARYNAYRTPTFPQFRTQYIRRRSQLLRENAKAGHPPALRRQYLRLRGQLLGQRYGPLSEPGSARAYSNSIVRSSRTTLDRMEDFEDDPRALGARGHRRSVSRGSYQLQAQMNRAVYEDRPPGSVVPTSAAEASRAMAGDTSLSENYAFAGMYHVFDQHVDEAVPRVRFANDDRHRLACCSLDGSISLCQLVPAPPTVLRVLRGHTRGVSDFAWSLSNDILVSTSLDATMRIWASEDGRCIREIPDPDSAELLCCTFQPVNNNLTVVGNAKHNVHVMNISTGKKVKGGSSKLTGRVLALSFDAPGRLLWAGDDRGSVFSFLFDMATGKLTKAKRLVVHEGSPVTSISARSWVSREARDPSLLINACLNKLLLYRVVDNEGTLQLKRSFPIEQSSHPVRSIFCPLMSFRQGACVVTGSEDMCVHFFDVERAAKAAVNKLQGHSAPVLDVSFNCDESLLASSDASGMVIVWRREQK
# UniProt Q86Y07: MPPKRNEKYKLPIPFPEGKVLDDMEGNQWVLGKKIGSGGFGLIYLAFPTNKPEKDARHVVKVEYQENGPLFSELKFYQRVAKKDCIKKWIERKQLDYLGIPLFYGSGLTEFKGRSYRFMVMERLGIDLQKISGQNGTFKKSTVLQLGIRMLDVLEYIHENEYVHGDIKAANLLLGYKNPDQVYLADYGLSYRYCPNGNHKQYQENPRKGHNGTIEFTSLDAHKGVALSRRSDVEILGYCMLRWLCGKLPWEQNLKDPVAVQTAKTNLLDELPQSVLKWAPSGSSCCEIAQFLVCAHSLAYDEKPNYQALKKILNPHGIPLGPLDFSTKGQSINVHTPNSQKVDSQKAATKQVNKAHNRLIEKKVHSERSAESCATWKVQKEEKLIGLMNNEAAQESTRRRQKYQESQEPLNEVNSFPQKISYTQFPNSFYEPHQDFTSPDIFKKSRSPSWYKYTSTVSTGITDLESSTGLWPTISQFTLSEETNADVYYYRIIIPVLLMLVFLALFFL
# UniProt Q5JSH3: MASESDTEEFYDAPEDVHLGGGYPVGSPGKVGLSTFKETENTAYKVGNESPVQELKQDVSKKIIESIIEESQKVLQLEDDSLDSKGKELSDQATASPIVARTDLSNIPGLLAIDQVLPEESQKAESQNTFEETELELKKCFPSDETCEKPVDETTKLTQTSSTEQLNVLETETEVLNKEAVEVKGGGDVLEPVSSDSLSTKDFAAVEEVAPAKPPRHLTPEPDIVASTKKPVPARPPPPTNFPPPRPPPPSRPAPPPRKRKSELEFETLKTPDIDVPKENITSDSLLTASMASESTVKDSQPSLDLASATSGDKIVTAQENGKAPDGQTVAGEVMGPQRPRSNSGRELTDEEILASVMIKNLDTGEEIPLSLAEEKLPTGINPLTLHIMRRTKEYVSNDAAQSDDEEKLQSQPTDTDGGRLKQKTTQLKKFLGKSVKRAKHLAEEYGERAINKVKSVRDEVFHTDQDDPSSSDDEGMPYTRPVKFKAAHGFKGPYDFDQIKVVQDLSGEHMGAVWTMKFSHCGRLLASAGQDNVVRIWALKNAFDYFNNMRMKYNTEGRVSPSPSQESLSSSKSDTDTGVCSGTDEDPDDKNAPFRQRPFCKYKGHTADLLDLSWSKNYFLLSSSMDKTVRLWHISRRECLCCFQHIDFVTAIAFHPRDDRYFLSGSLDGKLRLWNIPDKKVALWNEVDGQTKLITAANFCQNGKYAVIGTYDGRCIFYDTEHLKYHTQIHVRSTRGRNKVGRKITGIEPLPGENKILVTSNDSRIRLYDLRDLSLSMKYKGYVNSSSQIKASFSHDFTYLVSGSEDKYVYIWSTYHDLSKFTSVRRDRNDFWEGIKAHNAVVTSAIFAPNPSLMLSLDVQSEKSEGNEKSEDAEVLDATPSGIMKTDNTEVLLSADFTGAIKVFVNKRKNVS
# UniProt Q8NI36: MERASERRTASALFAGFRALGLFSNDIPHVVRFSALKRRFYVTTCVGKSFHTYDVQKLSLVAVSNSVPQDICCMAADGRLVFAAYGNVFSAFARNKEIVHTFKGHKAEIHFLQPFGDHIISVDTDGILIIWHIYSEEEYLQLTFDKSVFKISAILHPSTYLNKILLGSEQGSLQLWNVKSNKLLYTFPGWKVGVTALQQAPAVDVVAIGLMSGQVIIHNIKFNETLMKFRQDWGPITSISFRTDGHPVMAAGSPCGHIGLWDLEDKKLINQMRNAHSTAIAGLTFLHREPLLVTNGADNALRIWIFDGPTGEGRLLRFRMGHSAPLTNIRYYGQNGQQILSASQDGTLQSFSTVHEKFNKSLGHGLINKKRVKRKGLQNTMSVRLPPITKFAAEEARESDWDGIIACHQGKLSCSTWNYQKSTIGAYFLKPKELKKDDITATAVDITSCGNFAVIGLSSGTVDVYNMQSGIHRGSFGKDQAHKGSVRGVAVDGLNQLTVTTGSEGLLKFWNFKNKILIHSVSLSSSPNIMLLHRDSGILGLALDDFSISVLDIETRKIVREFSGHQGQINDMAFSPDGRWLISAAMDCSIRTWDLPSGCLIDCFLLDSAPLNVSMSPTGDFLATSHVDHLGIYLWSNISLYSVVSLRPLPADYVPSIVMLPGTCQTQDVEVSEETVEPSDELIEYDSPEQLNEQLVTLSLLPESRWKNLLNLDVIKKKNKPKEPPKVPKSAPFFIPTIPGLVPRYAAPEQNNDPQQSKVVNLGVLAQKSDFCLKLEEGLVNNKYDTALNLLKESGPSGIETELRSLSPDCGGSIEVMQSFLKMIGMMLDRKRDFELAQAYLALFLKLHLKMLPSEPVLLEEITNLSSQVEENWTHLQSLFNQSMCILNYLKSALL
# UniProt Q96FK6: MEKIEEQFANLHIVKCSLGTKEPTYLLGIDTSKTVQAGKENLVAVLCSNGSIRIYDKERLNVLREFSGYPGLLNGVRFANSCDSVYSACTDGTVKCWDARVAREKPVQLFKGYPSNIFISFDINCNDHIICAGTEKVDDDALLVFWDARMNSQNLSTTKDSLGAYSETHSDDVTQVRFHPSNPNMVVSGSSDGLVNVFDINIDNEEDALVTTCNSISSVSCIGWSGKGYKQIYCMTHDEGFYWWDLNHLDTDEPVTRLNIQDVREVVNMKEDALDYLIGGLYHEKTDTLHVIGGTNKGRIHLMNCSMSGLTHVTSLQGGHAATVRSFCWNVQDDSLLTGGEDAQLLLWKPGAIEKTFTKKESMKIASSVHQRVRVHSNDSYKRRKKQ
# UniProt Q8N3P4: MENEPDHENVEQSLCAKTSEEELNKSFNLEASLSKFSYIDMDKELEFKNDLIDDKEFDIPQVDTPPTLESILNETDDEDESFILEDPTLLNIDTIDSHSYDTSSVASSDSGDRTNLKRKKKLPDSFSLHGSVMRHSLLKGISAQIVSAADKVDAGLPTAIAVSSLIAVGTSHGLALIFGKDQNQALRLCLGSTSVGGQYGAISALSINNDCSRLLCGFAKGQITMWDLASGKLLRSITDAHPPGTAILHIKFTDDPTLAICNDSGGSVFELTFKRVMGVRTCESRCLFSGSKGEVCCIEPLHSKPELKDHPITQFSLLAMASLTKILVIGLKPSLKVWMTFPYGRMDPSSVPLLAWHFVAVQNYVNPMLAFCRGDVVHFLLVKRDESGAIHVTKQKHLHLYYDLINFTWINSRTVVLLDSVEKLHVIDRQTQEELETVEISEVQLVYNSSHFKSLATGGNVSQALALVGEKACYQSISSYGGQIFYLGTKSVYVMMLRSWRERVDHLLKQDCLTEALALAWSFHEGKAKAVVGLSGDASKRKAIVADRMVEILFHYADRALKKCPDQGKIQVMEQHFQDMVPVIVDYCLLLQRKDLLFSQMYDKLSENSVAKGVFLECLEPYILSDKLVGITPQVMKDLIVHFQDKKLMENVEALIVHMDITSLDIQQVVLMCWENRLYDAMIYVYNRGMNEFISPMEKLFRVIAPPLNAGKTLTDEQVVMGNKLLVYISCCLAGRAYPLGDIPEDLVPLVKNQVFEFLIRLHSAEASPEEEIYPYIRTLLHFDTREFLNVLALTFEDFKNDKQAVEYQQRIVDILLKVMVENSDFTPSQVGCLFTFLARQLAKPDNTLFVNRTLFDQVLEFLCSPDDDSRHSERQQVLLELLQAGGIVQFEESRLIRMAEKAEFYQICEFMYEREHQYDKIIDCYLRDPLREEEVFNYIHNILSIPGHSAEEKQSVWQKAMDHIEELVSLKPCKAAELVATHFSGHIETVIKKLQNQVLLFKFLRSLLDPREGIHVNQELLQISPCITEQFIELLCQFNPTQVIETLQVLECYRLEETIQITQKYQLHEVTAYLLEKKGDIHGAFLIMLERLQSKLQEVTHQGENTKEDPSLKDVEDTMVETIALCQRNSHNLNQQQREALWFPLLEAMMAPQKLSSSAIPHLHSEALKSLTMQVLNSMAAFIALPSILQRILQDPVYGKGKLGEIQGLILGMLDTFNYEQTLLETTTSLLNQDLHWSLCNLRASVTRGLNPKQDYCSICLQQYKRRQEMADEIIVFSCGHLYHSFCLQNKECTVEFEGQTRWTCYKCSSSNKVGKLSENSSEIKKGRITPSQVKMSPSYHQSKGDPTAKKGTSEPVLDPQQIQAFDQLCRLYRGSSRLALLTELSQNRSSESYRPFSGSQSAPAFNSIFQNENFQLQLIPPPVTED
# UniProt Q9UN37: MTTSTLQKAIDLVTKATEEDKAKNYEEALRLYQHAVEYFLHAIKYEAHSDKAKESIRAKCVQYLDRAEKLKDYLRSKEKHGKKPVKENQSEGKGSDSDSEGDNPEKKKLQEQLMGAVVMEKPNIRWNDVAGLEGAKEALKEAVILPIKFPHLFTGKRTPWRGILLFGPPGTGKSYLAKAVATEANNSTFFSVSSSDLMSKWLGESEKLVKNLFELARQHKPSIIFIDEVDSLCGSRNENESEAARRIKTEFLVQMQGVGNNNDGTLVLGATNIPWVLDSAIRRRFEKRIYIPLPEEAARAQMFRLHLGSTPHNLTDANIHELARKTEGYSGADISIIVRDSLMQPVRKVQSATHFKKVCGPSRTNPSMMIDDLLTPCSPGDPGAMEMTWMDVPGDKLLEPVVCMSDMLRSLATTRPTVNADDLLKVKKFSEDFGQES
# Key:
# Experiment in all cases: log2 fold change, soluble protein after heating vs DMSO (PISA); higher = thermal stabilisation; K562 cells, 10 uM, 30 min; active = over 0.2 and 3.5 SD of the protein, either way, in both replicates (recomputed)
# [1] = compound: CC1=C(C=C(C=C1)NC(=O)C2=CC(=CC=C2)C(C)(C)C#N)NC3=CC4=C(C=C3)N=CN(C4=O)C
# Procedure, shortened: (§1)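 Quantification of soluble protein used TMTpro 16plex LC-MS/MS, with channel sums equalised. Samples were the supernatant after 21,000xg for 90 min of pooled aliquots from K562 cells (2×10^6 cells/mL) treated with 10 μM compound for 30 min, heated for 3 min over 48°C-58°C, and extracted in PBS with 0.5% NP-40 at 4°C. Values, from duplicates, describe thermal stability against control samples on a log2 fold-change scale.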
# [2] = compound: CC1=C(C=C(C=C1)NC(=O)C2=CC(=CC=C2)N(C)C)NC(=O)C3=CC=C(C=C3)O
# Procedure, shortened: as §1
# [3] = compound: CC1=CC=C(C=C1)SC2=C3C=C(SC3=CN=C2)C(=O)N
# Procedure, shortened: as §1
# [4] = compound: CC1=NC(=CC=C1)C2=C(N=C(N2)C(C)(C)C)C3=CC4=NC=CN=C4C=C3
# Procedure, shortened: as §1
# Nexturastat A = compound: CCCCN(Cc1ccc(C(=O)NO)cc1)C(=O)Nc1ccccc1 [Nexturastat A]
# Procedure, shortened: as §1
# vemurafenib = compound: CCCS(=O)(=O)Nc1ccc(F)c(C(=O)c2c[nH]c3ncc(-c4ccc(Cl)cc4)cc23)c1F [vemurafenib]
# Procedure, shortened: as §1
# [5] = compound: CCCS(=O)(=O)Nc1ccc(F)c(C(=O)c2c[nH]c3ncc(Cl)cc23)c1F
# Procedure, shortened: as §1
# [6] = compound: CCCc1cc(C)[nH]c(=O)c1CNC(=O)c1cc(-c2ccnc(N3CCN(C)CC3)c2)cc2c1cnn2C(C)C
# Procedure, shortened: as §1
# givinostat = compound: CCN(CC)Cc1ccc2cc(COC(=O)Nc3ccc(C(=O)NO)cc3)ccc2c1 [givinostat]
# Procedure, shortened: as §1
# barasertib = compound: CCN(CCCOc1ccc2c(Nc3cc(CC(=O)Nc4cccc(F)c4)[nH]n3)ncnc2c1)CCOP(=O)(O)O [barasertib]
# Procedure, shortened: as §1
# [7] = compound: CC[C@@H]1C(=O)N(C)c2cnc(Nc3ccc(C(=O)NC4CCN(C)CC4)cc3OC)nc2N1C1CCCC1
# Procedure, shortened: as §1
# volasertib = compound: CC[C@@H]1C(=O)N(C)c2cnc(Nc3ccc(C(=O)N[C@H]4CC[C@H](N5CCN(CC6CC6)CC5)CC4)cc3OC)nc2N1C(C)C [volasertib]
# Procedure, shortened: as §1
# [8] = compound: CC[C@H](C)N1C=C(C2=C(C=C(C=C21)C3=CN=C(C=C3)N4CCNCC4)C(=O)NCC5=C(C=C(NC5=O)C)C)C
# Procedure, shortened: as §1
# epoxomicin = compound: CC[C@H](C)[C@@H](C(=O)N[C@@H]([C@@H](C)O)C(=O)N[C@@H](CC(C)C)C(=O)[C@]1(CO1)C)NC(=O)[C@H]([C@@H](C)CC)N(C)C(=O)C [epoxomicin]
# Procedure, shortened: as §1
# [9] = compound: CCn1c(C(=O)N(C2CC2)C2CC2)cc2c3c(ncn3C)c(Nc3cc(C)n(C)n3)nc21
# Procedure, shortened: as §1
# [10] = compound: CCn1cc(-c2ccnc3[nH]c(-c4cccc(CN(C)C)c4)cc23)c(-c2ccc(NC(=O)N(C)C)cc2)n1
# Procedure, shortened: as §1
# [11] = compound: CN(C)CC(=O)Nc1ccc2[nH]c(=O)c3ccccc3c2c1
# Procedure, shortened: as §1
# rosiglitazone = compound: CN(CCOC1=CC=C(C=C1)C[C@H]2C(=O)NC(=O)S2)C3=CC=CC=N3 (racemic) [rosiglitazone]
# Procedure, shortened: as §1
# [12] = compound: CN1C2=C(C3=C1C(=O)N(N=C3)CC4=CC(=CC=C4)N)SC(=C2)S(=O)C
# Procedure, shortened: as §1
# [13] = compound: CN1CCC(CNc2ccc3ncc(-c4cccc(OC(F)(F)F)c4)n3n2)CC1
# Procedure, shortened: as §1
Target,log2 fold change [1],log2 fold change [2],log2 fold change [3],log2 fold change [4],log2 fold change (Nexturastat A),log2 fold change (vemurafenib),log2 fold change [5],log2 fold change [6],log2 fold change (givinostat),log2 fold change (barasertib),log2 fold change [7],log2 fold change (volasertib),log2 fold change [8],log2 fold change (epoxomicin),log2 fold change [9],log2 fold change [10],log2 fold change [11],log2 fold change (rosiglitazone),log2 fold change [12],log2 fold change [13]
WIPI2 (UniProt Q9Y4P8),inactive: 0.032,inactive: -0.029,inactive: 0.001,inactive: -0.008,inactive: -0.112,inactive: -0.009,inactive: 0.013,inactive: -0.031,inactive: 0.019,inactive: 0.053,inactive: -0.089,inactive: -0.191,inactive: 0.019,inactive: 0.035,inactive: -0.112,inactive: -0.03,inactive: 0.015,inactive: 0.003,inactive: 0.012,inactive: -0.071
VPS50 (UniProt Q96JG6),inactive: -0.007,inactive: -0.076,inactive: 0.054,inactive: 0.054,inactive: -0.052,inactive: 0.077,inactive: 0.066,inactive: 0.09,inactive: 0.014,inactive: 0.059,inactive: -0.168,active: -0.415,inactive: 0.08,inactive: 0.009,,inactive: -0.026,inactive: 0.009,,inactive: 0.036,inactive: -0.101
VRK3 (UniProt Q8IV63),inactive: 0.097,inactive: -0.211,inactive: 0.018,inactive: 0.115,inactive: 0.006,inactive: 0.067,inactive: 0.032,inactive: -0.066,inactive: 0.096,inactive: 0.099,inactive: 0.084,inactive: 0.027,inactive: 0.073,inactive: 0.031,inactive: 0.004,inactive: -0.095,inactive: 0.034,inactive: 0.004,,inactive: -0.049
WDR13 (UniProt Q9H1Z4),inactive: -0.042,inactive: -0.013,inactive: 0.018,inactive: 0.014,inactive: -0.003,inactive: -0.008,inactive: 0.016,inactive: -0.051,inactive: -0.054,inactive: -0.043,inactive: 0.051,inactive: -0.013,inactive: -0.028,inactive: 0.009,inactive: 0.005,inactive: -0.06,inactive: -0.021,inactive: 0.041,inactive: -0.021,inactive: -0.021
VDAC3 (UniProt Q9Y277),inactive: 0.005,inactive: -0.003,inactive: 0.026,inactive: -0.028,inactive: -0.012,inactive: -0.029,inactive: 0.002,inactive: -0.038,inactive: -0.012,inactive: -0.017,inactive: 0.036,inactive: 0.023,inactive: -0.032,inactive: -0.013,inactive: 0.034,inactive: -0.025,inactive: 0.031,,inactive: -0.063,inactive: 0.05
VRK2 (UniProt Q86Y07),inactive: -0.072,inactive: -0.05,inactive: 0.01,inactive: 0.015,inactive: 0.04,inactive: 0.006,inactive: 0.044,inactive: 0.025,inactive: 0.03,inactive: 0.01,inactive: 0.034,inactive: -0.049,inactive: 0.054,inactive: 0.021,,inactive: -0.005,inactive: -0.009,,inactive: -0.04,active: 0.229
WDR44 (UniProt Q5JSH3),inactive: -0.008,inactive: 0,inactive: -0.025,inactive: -0.002,inactive: -0.026,inactive: -0.028,inactive: -0.005,inactive: -0.031,inactive: 0.01,inactive: -0.008,inactive: 0.012,inactive: -0.019,inactive: -0.014,inactive: 0.035,inactive: -0.001,inactive: -0.016,inactive: -0.012,inactive: 0.011,inactive: -0.056,inactive: -0.012
WDR36 (UniProt Q8NI36),inactive: -0.067,inactive: -0.02,inactive: -0.028,inactive: -0.023,inactive: 0.182,inactive: -0.042,inactive: 0.017,inactive: 0.053,inactive: 0.06,inactive: -0.021,inactive: 0.03,inactive: -0.059,inactive: -0.015,inactive: -0.047,inactive: -0.028,inactive: 0.116,inactive: -0.036,inactive: -0.048,inactive: 0.152,inactive: 0.223
WDR89 (UniProt Q96FK6),inactive: -0.02,inactive: 0.019,inactive: -0.005,inactive: 0.022,inactive: -0.031,inactive: -0.025,inactive: -0.023,inactive: 0.074,inactive: 0.008,inactive: -0.008,inactive: 0.052,inactive: -0.007,inactive: -0.017,inactive: -0.014,inactive: 0.009,inactive: 0,inactive: -0.002,inactive: 0.038,inactive: -0.02,inactive: -0.057
WDR73 (UniProt Q6P4I2),inactive: -0.04,inactive: 0.011,inactive: -0.01,inactive: -0.019,inactive: -0.065,inactive: -0.013,inactive: -0.025,inactive: -0.024,inactive: -0.028,inactive: 0.009,inactive: 0.058,inactive: 0.021,inactive: 0,inactive: 0.002,inactive: -0.016,inactive: -0.026,inactive: -0.021,inactive: 0.019,inactive: -0.061,inactive: 0.067
VPS8 (UniProt Q8N3P4),inactive: -0.011,inactive: -0.003,inactive: -0.034,inactive: 0.058,inactive: 0.032,inactive: 0.048,inactive: 0.126,inactive: -0.04,inactive: 0.014,inactive: 0.028,inactive: -0.087,active: -0.647,inactive: 0.079,inactive: -0.015,,inactive: -0.038,inactive: 0.001,,inactive: -0.023,active: -0.332
VPS13C (UniProt Q709C8),inactive: 0.005,inactive: 0.002,inactive: 0.005,inactive: 0.014,inactive: -0.032,inactive: -0.015,inactive: 0.014,inactive: -0.039,inactive: 0.036,inactive: 0.029,inactive: -0.108,inactive: -0.18,inactive: -0.015,inactive: -0.002,inactive: 0.006,inactive: -0.046,inactive: 0.009,inactive: 0.037,inactive: -0.051,inactive: -0.065
WIZ isoform 3 (UniProt O95785),inactive: 0.083,inactive: 0.014,inactive: -0.052,inactive: 0.027,inactive: 0.091,inactive: 0.142,inactive: 0.059,inactive: 0.067,inactive: 0.136,inactive: -0.092,inactive: -0.006,inactive: -0.032,inactive: -0.091,inactive: -0.013,inactive: -0.019,inactive: -0.02,inactive: 0.024,inactive: 0.064,inactive: 0,inactive: -0.105
VMP1 (UniProt Q96GC9),inactive: 0.18,inactive: -0.031,inactive: 0.011,inactive: -0.006,inactive: 0.033,inactive: -0.001,inactive: -0.038,inactive: -0.098,inactive: -0.031,inactive: -0.029,inactive: 0.033,inactive: -0.009,inactive: -0.022,inactive: -0.055,inactive: 0.058,inactive: -0.076,inactive: -0.039,inactive: 0.012,inactive: -0.04,inactive: 0.034
VPS4A (UniProt Q9UN37),inactive: 0.009,inactive: -0.07,inactive: 0.006,inactive: 0.008,inactive: -0.008,inactive: 0.072,inactive: 0.079,inactive: 0.006,inactive: 0.008,inactive: 0.047,inactive: -0.119,inactive: -0.15,inactive: 0.041,inactive: 0.078,inactive: 0,inactive: -0.01,inactive: -0.005,inactive: 0.114,inactive: -0.031,inactive: -0.086

# Limited to log2 fold change [5], for some of the entries so far:
Target	log2 fold change [5]
VPS50 (UniProt Q96JG6)	inactive: 0.066
VRK3 (UniProt Q8IV63)	inactive: 0.032
